According to the supplement of paper PMC10338343:
± gives the standard deviation. The entries are a selection whose mix differs from that of the whole data set. Many entries were measured with a wide error.

Test system: EfPiwi piRISC loaded with piRNA #1 (26 nt)
Assay: pre-steady-state target cleavage rate (min^-1); guide: piRNA #1 5'p-UGAGGUAGUAGGUUGUAUAGUAUCCA; MIWI and MILI are mouse PIWI proteins and EfPiwi is from a freshwater sponge; tags in brackets are library labels; higher = faster piRNA-guided slicing of the target
Conditions: auxiliary factor: 500 nM Ephydatia muelleri Gtsf1
In short: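 Cleave-'n-Seq reactions paired 0.1 nM transcribed, DNA-blocked target RNA library with 1 nM active affinity-purified piRISC holding one synthetic guide, plus or minus 500 nM GTSF1 partner protein, in HEPES–potassium acetate buffer at 33 °C for 0–8 or 0–960 min. After sequencing of uncleaved targets and normalisation to depth and weakly complementary targets, the pre-steady-state cleavage rate was taken from a burst-and-steady-state fit. Three trials were pooled, and k3 was capped at 0.0001 min^-1.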

Row | Sequence | pre-steady-state target cleavage rate
1 | GGAGAGGAUACUAUACUACCUACUACCUGA | 0.00353 ± 0.002
2 | GGAGACCUAUGUAUACAUCCUAGUACCUCA | 0.00209 ± 0.0043
3 | GGAGACCUAACUAAACAACCUACUACCUCA | 0.00631 ± 0.0031
4 | GGAGAGGUUACUAUACAUCCUACUACCUCA | 0.00567 ± 0.0029
5 | GGAGACCUAUCUAUACAACCUACUACCCUCA | 0.00178 ± 0.0045
6 | GGAGACCAUACUAUAGAACCUACUACCACA | 0.00204 ± 0.0034
7 | GGAGAGGAUACAAUACAACCUACUUCCUCA | 0.00257 ± 0.002
8 | GGAGACCUAUGUAUACAACCUACUACCUGA | 0.00194 ± 0.0039
9 | GGAGACCAUAGUAUACAACCUACUACCACA | 0.00262 ± 0.0041
10 | GGAGACCUAUGAUAUGUUCCUAUCUACCUCA | 0.000124 ± 0.019
11 | GGAGACGAUACUAAAGAACCUACUACCUCA | 0.00268 ± 0.004
12 | GGAGACCAUACUAUACAACCUACUACUCA | 0.00387 ± 0.0024
13 | GGAGACCUAUCUAUACAACCUUCUACGUCA | 0.00205 ± 0.0049
14 | GGAGAGGAUACUAUACAAACCUACUACCUCA | 0.0671 ± 0.028
15 | GGAGACCUAACUAUACAACCUACUACCCUCA | 0.00262 ± 0.0041
16 | GGAGUGGAUAGUAUACAACCUACUACCUCA | 0.00712 ± 0.0031

Two records picked at random from the list so far, as already listed:
Row | Sequence | pre-steady-state target cleavage rate
16 | GGAGUGGAUAGUAUACAACCUACUACCUCA | 0.00712 ± 0.0031
11 | GGAGACGAUACUAAAGAACCUACUACCUCA | 0.00268 ± 0.004
